Screen size: about 220,000 compounds; about 770 (0.35%) were called active. The shares of active, inactive and inconclusive entries below differ from those in the screen. Cut-off read from the data, not from the text of the source: active = binding response below about 49% or above about 150%; inconclusive = no clear call, values can overlap the other calls; inactive = in between.
These compounds were tested against Guanine nucleotide-binding protein G(o) subunit alpha (Homo sapiens) (UniProt P09471) (assay: RGS7-Galphao binding modulators, primary screen, biochemical, multiplexed bead flow cytometry (AID 1439;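 note: fluorescent Galphao held in activated GDP-AlF4 state binding bead-coupled RGS7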)). Settings: at 10 µM, actives lie on both sides.

By UniProt entry, the sequences of proteins in these tests, tags left out.
UniProt P09471, whole entry, looked up: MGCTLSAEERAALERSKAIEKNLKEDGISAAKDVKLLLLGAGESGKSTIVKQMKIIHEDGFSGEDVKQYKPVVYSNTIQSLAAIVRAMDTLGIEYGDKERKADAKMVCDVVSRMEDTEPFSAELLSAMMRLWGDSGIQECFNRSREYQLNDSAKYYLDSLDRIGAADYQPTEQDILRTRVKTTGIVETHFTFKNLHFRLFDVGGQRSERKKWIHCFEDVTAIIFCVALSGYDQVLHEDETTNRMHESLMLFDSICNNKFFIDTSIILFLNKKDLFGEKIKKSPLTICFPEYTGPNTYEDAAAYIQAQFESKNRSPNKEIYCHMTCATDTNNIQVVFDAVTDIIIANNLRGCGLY

SMILES	binding response (% of control)
Nc1ccc(C(=O)N/N=C\C=C\c2ccc([N+](=O)[O-])cc2)cc1	inconclusive: 109%
O=C1Nc2ccc(Cl)cc2C(=O)C1(F)c1ccccc1 (configuration not stated)	inconclusive: 120%
Cn1nc(C(=O)Nc2nc(-c3ccc(F)cc3)cs2)ccc1=O	inconclusive: 2.17%
COc1ccc(NC(=O)C2C3C=CC(C3)C2C(=O)O)cc1 (configuration not stated)	inconclusive: 66.2%
Cc1ccc(Nc2nnc(-c3ccccc3N)o2)cc1C	inconclusive: 93.3%
Oc1[nH]c2ccccc2c1N=NC(=S)N1CCOCC1	inconclusive: 74%
CC(C)OP(=O)(c1ccc(N(C)C)cc1)C(Nc1ccccc1)c1ccccc1 (configuration not stated)	inconclusive: 97%
c1ccc(Nc2ccnc(Nc3ccccc3)n2)cc1	inconclusive: 53%
CCOc1[nH]n(-c2ccccc2)c(=O)c1C=NCc1cccnc1	inconclusive: 83.1%
C/C(Cc1ccccc1)=N\NC(=O)CNC(=O)COc1cccc(C)c1	inconclusive: 117%
Cn1c(SCC(=O)Nc2ccccc2)nnc1-c1ccc2nonc2c1	inconclusive: 108%
O=C(C1CCCO1)N1CCN(Cc2c(O)ccc3ccccc23)CC1 (configuration not stated)	inactive: 113%
COC(=O)C1=C(N)Oc2c(oc(CO)cc2=O)C1c1ccc(F)cc1 (configuration not stated)	inconclusive: 121%
CCN(CC)c1nc2ccccc2[nH]c1=O	inconclusive: 98.8%
CCOCCCNC(=O)C(NC(=O)Cc1c[nH]c2ccccc12)c1ccc(OC)cc1 (configuration not stated)	inconclusive: 107%
Cc1ccc(CN2CCN(Cc3ccc(-n4cccn4)cc3C)CC2CCO)cc1 (configuration not stated)	inactive: 96%
CN(C)S(=O)(=O)c1cccc(C(=O)NCC2(N3CCOCC3)CCCCC2)c1	inconclusive: 155%
Cc1[nH]nc(SCC(=O)N2CCC(C)CC2)c1[N+](=O)[O-]	inactive: 99.4%
N#C/C(=N/Nc1ccc(OC(F)(F)F)cc1)C(N)=S	inconclusive: 105%

Given bar-delimited: part of the list above.
SMILES | binding response (% of control)
Nc1ccc(C(=O)N/N=C\C=C\c2ccc([N+](=O)[O-])cc2)cc1 | inconclusive: 109%
Oc1[nH]c2ccccc2c1N=NC(=S)N1CCOCC1 | inconclusive: 74%
C/C(Cc1ccccc1)=N\NC(=O)CNC(=O)COc1cccc(C)c1 | inconclusive: 117%
Cc1ccc(CN2CCN(Cc3ccc(-n4cccn4)cc3C)CC2CCO)cc1 (configuration not stated) | inactive: 96%

Additional entries follow.

SMILES	binding response (% of control)
CCCc1nnc2n1N=C(c1ccc([N+](=O)[O-])cc1)CS2	inconclusive: 110%
CCOC(=O)Cc1csc(NC(=O)CC(C)(C)C)n1	inactive: 95.8%
CCOC(=O)c1cc(-c2csc(COc3ccccc3)n2)on1	inconclusive: 58.9%
COc1ccc(N(CC(=O)NCc2ccccc2)C(=O)Cn2nnc(-c3ccccc3F)n2)cc1OC	inactive: 91.6%
N/C(=N\c1nc2ccccc2o1)NC(=O)c1cccc(Cl)c1	inconclusive: 166%
CCOCCOC(=O)NCCCCCCNC(=O)OCCOCC	inconclusive: 94.5%
O=c1oc2ccccc2nc1/C=C(\O)c1ccc(Br)cc1	inconclusive: 115%
CC1CCc2c(sc3ncnc(NCCN4CCOCC4)c23)C1 (configuration not stated)	inconclusive: 110%
COC/C=C/C1=CC2=CC(=O)C(C)(OC(=O)c3cnc4ccccc4n3)C(=O)C2=CN1CCN1CCOCC1 (configuration not stated)	inconclusive: 62.5%
Cc1c(NC(=O)C(C)OC(=O)C23CC4CC(CC(Br)(C4)C2)C3)c(=O)n(-c2ccccc2)n1C (configuration not stated)	inconclusive: 106%
Nc1nc(Nc2ccc(Cl)cc2)nc(NCCO)c1[N+](=O)[O-]	inconclusive: 110%
O=CN1CCN(C(=S)Nc2ccc(OC(F)F)cc2)CC1	inconclusive: 113%
CCn1c(-c2cccn(Cc3ccc(Cl)cc3Cl)c2=O)n[nH]c1=S	inconclusive: 113%
CCOC(=O)c1cc(CO)cc(C(=O)OCC)c1	inconclusive: 83.4%
Cc1nn(Cc2ccc([N+](=O)[O-])cc2)c(=O)n1-c1ccc(Cl)cc1	inconclusive: 113%
COC(=O)c1ccc(C(=O)OC)c(NC(=S)N2CCN(C(=O)C3CCCO3)CC2)c1 (configuration not stated)	inconclusive: 30.2%
CC1(C)Cc2c(sc3c2c(N)nc(=S)n3Cc2ccc(Br)cc2)CO1	inconclusive: 117%
C=CCc1cc(C=O)cc(OC)c1OCc1ccc(C(=O)O)cc1	inconclusive: 53.9%
O=C(Nc1ccc2ccccc2n1)Nc1cccs1	inconclusive: 111%

SMILES	binding response (% of control)
CC(C)(C)NS(=O)(=O)c1ccc2nc(NC(=O)c3ccc(N4C(=O)CCC4=O)cc3)sc2c1	inconclusive: 97.2%
COc1ccccc1C(=O)C1CCCN(Cc2ccc3c(c2)OCCO3)C1 (configuration not stated)	inconclusive: 19.6%
COCCCNC(=O)c1ccc(-c2csc(C)n2)cc1	inactive: 110%
O=[N+]([O-])c1cc2c(cc1/C=N/n1c(-c3ccccc3)n[nH]c1=S)OCO2	inactive: 106%
COc1ccc(C(=O)N[C@H](C(=O)Nc2nc3ccccc3[nH]2)C(C)C)cc1	inconclusive: 76.5%
O=S(N1CCc2ccccc21)C12CC3CC(CC(C3)C1)C2 (configuration not stated)	inconclusive: 88.5%
CCCCC1=CC2=C(c3ccco3)C(=O)C(C)(OC(=O)c3ccc(OC)cc3)C(=O)C2=CN1Cc1ccccc1 (configuration not stated)	inconclusive: 72.7%
CCN(CC)S(=O)(=O)c1ccc(N2CCOCC2)c(NC(=O)c2cc([N+](=O)[O-])ccc2Cl)c1	inconclusive: 94.3%
CC1CC(C)CN(CCCNC(=O)c2cn(C)c3ccc(S(=O)(=O)N4CCCC4)cc3c2=O)C1 (configuration not stated)	inconclusive: 88.1%
Cn1cccc1/C=C(\C#N)C(N)=S	inconclusive: 258%
O=C(CN(Cc1ccccc1)S(=O)(=O)c1ccc(Br)cc1)N/N=C/c1ccccc1C(=O)O	inconclusive: 47.1%
Cc1nc(N)sc1N=Nc1c(C)n(C)n(-c2ccccc2)c1=O	inconclusive: 117%
Fc1ccc(Nc2ccc3ccccc3n2)c(F)c1	inconclusive: 115%
COc1ccc(/C=C/C(=O)NC(=S)NNC(=O)c2cccs2)cc1	inconclusive: 87.5%
COc1ccc(CSc2nnc(SCc3ccc([N+](=O)[O-])cc3)s2)cc1	inactive: 98.3%
CCCn1nnc(NC(=O)c2ccc3c(c2)OCO3)n1	inconclusive: 157%
COc1ccc(C2(CNC(=O)c3ccc(C)cc3)CCOCC2)cc1	inconclusive: 93.8%
Cn1nc(-c2ccccc2)cc1NS(=O)(=O)c1ccc(C#N)cc1	inconclusive: 123%
Cc1ccc(Oc2nc3c(c(=O)n(C)c(=O)n3C)n2C)cc1C	inconclusive: 94.2%
